From patent US20180022822A1, “NOVEL ANTI-FIBROBLAST ACTIVATION PROTEIN (FAP) BINDING AGENTS AND USES THEREOF” (Mabimmune Diagnostics AG, priority 2016, published 2018)

The molecules below were run on FAP (assay: pepscan epitope mapping with overlapping, truncated and alanine-mutated FAP peptides). Settings: 188 linear 15-mer peptides, 11 amino acid overlap.
Format: binding, human

| Molecule | binding epitope (FAP sequence recognized) |
| --- | --- |
| NI-206.82C2: human-derived recombinant anti-FAP antibody; VH SEQ ID NO: 2 or 4 (PIMC), VL SEQ ID NO: 6 (antibody, V domains shown) VH: QVQLQQSGPGLVKPSQTLSLTCAISGDSVSSNSVTWNWIRQSPSRGLEWLGRTYYRSKWYNDYAVSVKGRITINPDTSKNQFYLQLKSVTPEDAAVYYCARDSSILYGDYWGQGTLVTVSS VL: QAVLTQPSSLSASPGASASLTCTLPSGINVGTYRIFWFQQKPGSPPQYLLSYKSDSDNHQGSGVPSRFSGSKDASANAGILLISGLQSEDEADYYCMIWHSSAWVFGGGTKLTVL | 525-[…]-535 |
| NI-206.18H2: human-derived recombinant anti-FAP antibody; VH SEQ ID NO: 41, VL SEQ ID NO: 43 (antibody, listed as Homo sapiens, V domains shown) VH: QVQLQESGPRLVKPSETLSLTCTVSGYSISNGYYWGWIRQPPGQGLEWIASVWHSGNTYHNPSLKSRVTILVDTLKNQFSLNLKSVTAADTALYYCARSYTRNDVGAFETWGQGTMVTVSS VL: SYELTQPPSVSVSPGQTARIACSGDELPKRYAYWYQQKSGQAPVLVMYEDTKRPSGIPERLSGSSSGTVTTLTISGAQVEDEADYYCYSTAPSGNHTFVFGTGTRVTVL | 501-[…]-511 |
| NI-206.59B4: human-derived recombinant anti-FAP antibody; VH SEQ ID NO: 8, VL SEQ ID NO: 10 (antibody, listed as Homo sapiens, V domains shown) VH: QVQLVQSGAEVKKPGASVKVSCKTSGYTFTDYYIHWVRQAPGQGLEWMGWINPNRGGTNYAQKFQGRVTMTRDTSIATAYMELSRLRSDDTAVYYCATASLKIAAVGTFDCWGQGTLVTVSS VL: SYELTQPPSVSVSPGQTARITCSGDALSKQYAFWFQQKPGQAPILVIYQDTKRPSGIPGRFSGSSSGTTVTLTISGAQADDEADYYCQSADSSGTYVFGTGTKVTVL | 53-SYKTFFP-59 |
| NI-206.22F7: human-derived recombinant anti-FAP antibody; VH SEQ ID NO: 12, VL SEQ ID NO: 14 (antibody, listed as Homo sapiens, V domains shown) VH: EVQLVETGGGVVQPGRSLRLSCAASGFSFSTHGMYWVRQPPGKGLEWVAVISYDGSDKKYADSVKGRFTISRDNSKNTVYLEMSSVRAEDTALYYCFCRRDAFDLWGQGTMVTVSS VL: SYVLTQPPSVSVSPGQTARITCSGDALPKKYAYWYQQKSGQAPVLVIYEDTKRPSGIPERFSGSSSGTMATLTISGAQVEDEADYYCYSTDSSGNYWVFGGGTEVTVL | 381-[…]-391 |
| NI-206.27E8: human-derived recombinant anti-FAP antibody; VH SEQ ID NO: 16, VL SEQ ID NO: 18 (antibody, listed as Homo sapiens, V domains shown) VH: EVQLVESGGGLVEPGGSLRLSCAASGFTFSDAWMNWVRQAPGKGLEWVGRIKTKSDGGTTDYAAPVRGRFSISRDDSKNTLFLEMNSLKTEDTAIYYCFITVIVVSSESPLDHWGQGTLVTVSS VL: SYELTQPPSVSVSPGQTARITCSGDELPKQYAYWYQQKPGQAPVLVIYKDRQRPSGIPERFSGSSSGTTVTLTISGVQAEDEADYYCQSAYSINTYVIFGGGTKLTVL | 169-NIYLKQR-175 |
| NI-206.12G4: human-derived recombinant anti-FAP antibody; VH SEQ ID NO: 20, VL SEQ ID NO: 22 (antibody, listed as Homo sapiens, V domains shown) VH: EVQLVESGGGLVKPGGSLRLSCAASGFTFSDYYMSWIRQAPGKGLEWISYISSGSSYTNYADSVKGRFTISRDNAKKSVYLEVNGLTVEDTAVYYCARVRYGDREMATIGGFDFWGQGTLVTVSS VL: SYELTQPPSVSVSPGQTARITCSGDALPKQYAYWYQQSPGQAPVLVIYKDSERPSGIPERFSGSSSGTTVTLTISGVQAEDEADYYCQSADSGGTSRIFGGGTKLTVL | 481-[…]-495 |
| NI-206.17A6: human-derived recombinant anti-FAP antibody; VH SEQ ID NO: 24, VK SEQ ID NO: 26 (antibody, listed as Homo sapiens, V domains shown) VH: QVQLQESGPGLVRSTETLSLTCLVSGDSINSHYWSWLRQSPGRGLEWIGYIYYTGPTNYNPSLKSRVSISLGTSKDQFSLKLSSVTAADTARYYCARNKVFWRGSDFYYYMDVWGKGTTVTVSS VL: EIVLTQSPGTLSLSLGERATLSCRASQSLANNYLAWYQQKPGQAPRLLMYDASTRATGIPDRFSGSGSGTDFTLTISRLEPEDFAVYYCQQFVTSHHMYIFGQGTKVEIK | 77-[…]-87 |

Same assay, conditions: stepwise N- and C-terminal truncation of FAP 521-539

| Molecule | minimum epitope region |
| --- | --- |
| NI-206.82C2: human-derived recombinant anti-FAP antibody; VH SEQ ID NO: 2 or 4 (PIMC), VL SEQ ID NO: 6 (antibody, V domains shown) VH: QVQLQQSGPGLVKPSQTLSLTCAISGDSVSSNSVTWNWIRQSPSRGLEWLGRTYYRSKWYNDYAVSVKGRITINPDTSKNQFYLQLKSVTPEDAAVYYCARDSSILYGDYWGQGTLVTVSS VL: QAVLTQPSSLSASPGASASLTCTLPSGINVGTYRIFWFQQKPGSPPQYLLSYKSDSDNHQGSGVPSRFSGSKDASANAGILLISGLQSEDEADYYCMIWHSSAWVFGGGTKLTVL | 528-FDRSK-532 |
